# Measurements from PMC10882002 (Nature Communications, 2024).
# End groups of sequences in plain letters are not given here.
# Assay: general procedure: Fmoc solid-phase peptide synthesis; Rink amide resin (β-catenin peptides); CEM ProTide Rink amide resin (NEMO peptides); HATU (β-catenin peptides); diisopropylcarbodiimide/Oxyma pure (NEMO peptides)
# Settings: whole synthesis, UPLC 214 nm, scale of the general procedure 25 μmol (NEMO peptides), side-chain lactam ring, sequence written open
sequence,measurement,value
YPEDILDKHLQRV,final HPLC purity,97.9%
